Test results published in the supplement of paper PMC10849652.
Some of the results follow.

Amino acid sequences for entries named in this document (tags omitted). A change or cut given only in a name is not applied to a line headed by its entry.
UniProt Q92997: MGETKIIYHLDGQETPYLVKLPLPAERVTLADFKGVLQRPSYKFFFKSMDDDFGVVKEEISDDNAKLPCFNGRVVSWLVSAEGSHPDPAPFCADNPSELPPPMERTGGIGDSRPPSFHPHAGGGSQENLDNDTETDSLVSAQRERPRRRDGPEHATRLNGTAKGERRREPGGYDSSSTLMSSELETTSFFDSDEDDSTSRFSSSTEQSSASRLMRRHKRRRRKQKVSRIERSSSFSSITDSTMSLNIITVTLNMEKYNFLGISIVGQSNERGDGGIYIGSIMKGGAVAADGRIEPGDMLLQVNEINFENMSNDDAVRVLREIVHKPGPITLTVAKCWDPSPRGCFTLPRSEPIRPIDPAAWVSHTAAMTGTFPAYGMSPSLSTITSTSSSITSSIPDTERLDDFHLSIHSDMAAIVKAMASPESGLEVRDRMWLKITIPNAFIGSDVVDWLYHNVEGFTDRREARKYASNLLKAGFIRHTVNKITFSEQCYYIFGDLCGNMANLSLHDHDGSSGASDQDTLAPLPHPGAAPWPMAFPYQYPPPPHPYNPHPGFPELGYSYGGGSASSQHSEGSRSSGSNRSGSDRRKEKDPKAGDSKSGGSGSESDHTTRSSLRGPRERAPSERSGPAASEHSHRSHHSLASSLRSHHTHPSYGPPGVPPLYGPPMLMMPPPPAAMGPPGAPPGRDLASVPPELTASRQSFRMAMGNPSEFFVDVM
UniProt O95620: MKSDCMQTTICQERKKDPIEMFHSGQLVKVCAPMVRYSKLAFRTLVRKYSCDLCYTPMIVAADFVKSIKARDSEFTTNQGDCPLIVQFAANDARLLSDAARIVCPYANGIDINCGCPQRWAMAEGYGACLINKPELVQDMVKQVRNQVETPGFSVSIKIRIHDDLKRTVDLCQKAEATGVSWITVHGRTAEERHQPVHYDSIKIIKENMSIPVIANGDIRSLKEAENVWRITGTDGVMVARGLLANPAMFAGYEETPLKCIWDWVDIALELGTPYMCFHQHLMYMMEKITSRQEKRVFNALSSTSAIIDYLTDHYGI
UniProt Q7L8W6: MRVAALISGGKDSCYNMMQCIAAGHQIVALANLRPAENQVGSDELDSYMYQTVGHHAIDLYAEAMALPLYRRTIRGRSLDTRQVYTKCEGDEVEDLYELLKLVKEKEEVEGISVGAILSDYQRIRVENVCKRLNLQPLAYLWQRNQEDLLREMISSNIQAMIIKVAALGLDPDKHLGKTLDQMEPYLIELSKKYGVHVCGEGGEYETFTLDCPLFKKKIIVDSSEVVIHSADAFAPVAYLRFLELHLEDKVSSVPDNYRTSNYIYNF
UniProt Q14126: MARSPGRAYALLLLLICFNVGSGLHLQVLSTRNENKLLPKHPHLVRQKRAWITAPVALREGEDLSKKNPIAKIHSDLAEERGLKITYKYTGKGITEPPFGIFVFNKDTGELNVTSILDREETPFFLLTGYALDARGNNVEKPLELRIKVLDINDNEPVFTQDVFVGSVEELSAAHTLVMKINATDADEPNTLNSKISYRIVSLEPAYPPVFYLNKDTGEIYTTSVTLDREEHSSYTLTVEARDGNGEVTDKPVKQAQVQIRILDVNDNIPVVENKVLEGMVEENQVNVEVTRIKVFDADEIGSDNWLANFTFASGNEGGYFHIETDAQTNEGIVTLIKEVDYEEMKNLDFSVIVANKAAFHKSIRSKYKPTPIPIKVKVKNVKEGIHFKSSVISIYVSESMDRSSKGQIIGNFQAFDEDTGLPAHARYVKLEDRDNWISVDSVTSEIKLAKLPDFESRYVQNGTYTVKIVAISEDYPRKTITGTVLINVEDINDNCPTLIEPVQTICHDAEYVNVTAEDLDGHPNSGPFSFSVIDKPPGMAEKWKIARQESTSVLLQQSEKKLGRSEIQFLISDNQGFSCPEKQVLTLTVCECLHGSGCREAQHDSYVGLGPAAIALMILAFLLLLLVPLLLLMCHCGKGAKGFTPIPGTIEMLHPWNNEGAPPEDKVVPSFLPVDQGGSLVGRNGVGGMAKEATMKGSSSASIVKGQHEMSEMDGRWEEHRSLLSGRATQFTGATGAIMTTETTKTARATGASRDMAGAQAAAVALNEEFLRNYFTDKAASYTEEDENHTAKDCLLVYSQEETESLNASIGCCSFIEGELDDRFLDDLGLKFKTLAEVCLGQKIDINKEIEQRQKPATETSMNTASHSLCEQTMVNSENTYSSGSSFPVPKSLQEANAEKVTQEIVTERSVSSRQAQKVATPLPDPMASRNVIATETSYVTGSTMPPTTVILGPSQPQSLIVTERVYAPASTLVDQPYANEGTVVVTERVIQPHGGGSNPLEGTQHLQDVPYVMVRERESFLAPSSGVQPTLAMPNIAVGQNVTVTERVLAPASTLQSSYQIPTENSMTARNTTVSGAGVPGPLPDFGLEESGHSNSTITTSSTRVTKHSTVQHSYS
UniProt Q14919: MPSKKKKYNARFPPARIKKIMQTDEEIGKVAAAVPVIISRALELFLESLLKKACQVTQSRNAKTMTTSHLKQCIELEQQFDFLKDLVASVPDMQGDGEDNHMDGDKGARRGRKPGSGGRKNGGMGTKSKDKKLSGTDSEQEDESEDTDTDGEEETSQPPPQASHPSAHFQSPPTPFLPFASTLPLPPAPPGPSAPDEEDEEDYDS
UniProt Q9Y6G9, whole entry, looked up: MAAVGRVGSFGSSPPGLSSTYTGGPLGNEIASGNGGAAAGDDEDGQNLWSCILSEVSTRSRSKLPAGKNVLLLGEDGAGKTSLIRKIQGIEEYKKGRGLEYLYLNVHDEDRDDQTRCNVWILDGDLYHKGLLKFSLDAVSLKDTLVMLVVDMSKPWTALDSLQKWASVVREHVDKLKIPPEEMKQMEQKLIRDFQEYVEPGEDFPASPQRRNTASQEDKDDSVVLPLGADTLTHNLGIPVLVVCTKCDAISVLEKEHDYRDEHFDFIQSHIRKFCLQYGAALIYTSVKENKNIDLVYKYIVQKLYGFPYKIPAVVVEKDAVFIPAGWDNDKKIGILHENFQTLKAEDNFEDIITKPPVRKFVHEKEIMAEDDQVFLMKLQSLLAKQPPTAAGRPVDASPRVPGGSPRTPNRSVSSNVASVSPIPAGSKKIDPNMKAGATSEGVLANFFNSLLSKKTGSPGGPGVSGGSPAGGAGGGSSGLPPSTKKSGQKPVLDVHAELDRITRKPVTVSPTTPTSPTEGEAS
UniProt Q9NZN4: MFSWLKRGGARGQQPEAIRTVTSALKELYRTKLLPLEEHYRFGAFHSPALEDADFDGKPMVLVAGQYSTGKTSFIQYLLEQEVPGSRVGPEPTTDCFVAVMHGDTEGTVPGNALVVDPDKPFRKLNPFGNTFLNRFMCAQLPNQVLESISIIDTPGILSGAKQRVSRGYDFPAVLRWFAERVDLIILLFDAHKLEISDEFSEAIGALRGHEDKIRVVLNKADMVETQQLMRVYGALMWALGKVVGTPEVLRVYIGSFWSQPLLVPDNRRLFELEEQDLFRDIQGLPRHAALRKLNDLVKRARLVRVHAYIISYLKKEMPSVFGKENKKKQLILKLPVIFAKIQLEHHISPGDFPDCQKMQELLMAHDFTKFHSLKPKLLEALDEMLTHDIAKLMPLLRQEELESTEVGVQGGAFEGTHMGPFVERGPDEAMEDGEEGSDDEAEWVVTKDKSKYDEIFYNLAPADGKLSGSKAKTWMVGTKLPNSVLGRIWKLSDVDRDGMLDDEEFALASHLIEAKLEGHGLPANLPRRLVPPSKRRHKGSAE
UniProt P63167, whole entry, looked up: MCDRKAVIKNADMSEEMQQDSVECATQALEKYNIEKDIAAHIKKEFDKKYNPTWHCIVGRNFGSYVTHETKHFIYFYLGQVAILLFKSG
UniProt Q7Z388: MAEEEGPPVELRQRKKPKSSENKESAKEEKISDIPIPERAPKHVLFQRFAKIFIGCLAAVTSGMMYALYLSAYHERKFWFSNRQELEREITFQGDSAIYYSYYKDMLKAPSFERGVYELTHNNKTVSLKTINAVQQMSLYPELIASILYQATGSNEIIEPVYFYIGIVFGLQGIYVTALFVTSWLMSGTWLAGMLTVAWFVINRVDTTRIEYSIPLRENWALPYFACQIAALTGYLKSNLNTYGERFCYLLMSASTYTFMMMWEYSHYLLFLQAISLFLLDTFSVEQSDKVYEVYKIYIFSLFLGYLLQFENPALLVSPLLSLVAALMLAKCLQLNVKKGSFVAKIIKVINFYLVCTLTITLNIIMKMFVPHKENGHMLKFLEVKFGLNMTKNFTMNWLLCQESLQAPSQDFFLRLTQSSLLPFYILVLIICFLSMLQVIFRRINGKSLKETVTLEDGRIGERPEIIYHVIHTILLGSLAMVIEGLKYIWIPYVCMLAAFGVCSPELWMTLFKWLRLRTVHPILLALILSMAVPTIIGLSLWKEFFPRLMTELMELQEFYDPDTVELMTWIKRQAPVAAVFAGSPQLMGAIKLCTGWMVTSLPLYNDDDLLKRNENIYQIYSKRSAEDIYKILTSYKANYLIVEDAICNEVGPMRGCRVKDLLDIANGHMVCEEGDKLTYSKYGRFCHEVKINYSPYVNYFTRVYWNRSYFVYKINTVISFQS
UniProt O75071: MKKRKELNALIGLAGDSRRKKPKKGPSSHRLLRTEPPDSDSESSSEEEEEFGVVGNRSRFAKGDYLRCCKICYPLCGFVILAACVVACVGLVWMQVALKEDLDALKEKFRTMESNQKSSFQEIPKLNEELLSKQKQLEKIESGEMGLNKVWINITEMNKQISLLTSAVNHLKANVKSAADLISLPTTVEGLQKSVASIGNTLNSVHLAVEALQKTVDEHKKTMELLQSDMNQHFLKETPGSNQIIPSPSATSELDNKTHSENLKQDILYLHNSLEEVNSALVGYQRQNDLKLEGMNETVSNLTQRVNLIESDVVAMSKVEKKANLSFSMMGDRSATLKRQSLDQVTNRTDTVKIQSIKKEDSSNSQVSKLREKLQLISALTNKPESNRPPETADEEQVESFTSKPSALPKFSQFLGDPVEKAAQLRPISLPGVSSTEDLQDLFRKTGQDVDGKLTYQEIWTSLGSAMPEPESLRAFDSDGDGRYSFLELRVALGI
UniProt O60869: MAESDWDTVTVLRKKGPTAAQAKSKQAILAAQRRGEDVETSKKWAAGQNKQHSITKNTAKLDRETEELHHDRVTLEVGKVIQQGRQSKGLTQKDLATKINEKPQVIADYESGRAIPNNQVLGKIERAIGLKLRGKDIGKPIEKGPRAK
UniProt P57772: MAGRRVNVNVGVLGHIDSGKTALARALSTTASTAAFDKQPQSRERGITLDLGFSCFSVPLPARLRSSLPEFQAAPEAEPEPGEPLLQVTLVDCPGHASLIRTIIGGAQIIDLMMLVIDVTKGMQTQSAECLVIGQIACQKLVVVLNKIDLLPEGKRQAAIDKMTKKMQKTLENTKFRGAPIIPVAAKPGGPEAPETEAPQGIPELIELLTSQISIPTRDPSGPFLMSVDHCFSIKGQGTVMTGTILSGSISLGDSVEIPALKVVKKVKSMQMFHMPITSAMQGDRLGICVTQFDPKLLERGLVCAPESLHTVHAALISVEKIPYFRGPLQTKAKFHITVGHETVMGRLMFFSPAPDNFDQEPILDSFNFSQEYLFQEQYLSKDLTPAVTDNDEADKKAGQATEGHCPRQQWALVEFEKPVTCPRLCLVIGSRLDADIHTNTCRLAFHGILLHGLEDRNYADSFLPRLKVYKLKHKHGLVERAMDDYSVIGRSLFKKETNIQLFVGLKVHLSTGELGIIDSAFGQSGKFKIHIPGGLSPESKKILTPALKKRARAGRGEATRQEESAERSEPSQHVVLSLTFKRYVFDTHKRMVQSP
UniProt O77932: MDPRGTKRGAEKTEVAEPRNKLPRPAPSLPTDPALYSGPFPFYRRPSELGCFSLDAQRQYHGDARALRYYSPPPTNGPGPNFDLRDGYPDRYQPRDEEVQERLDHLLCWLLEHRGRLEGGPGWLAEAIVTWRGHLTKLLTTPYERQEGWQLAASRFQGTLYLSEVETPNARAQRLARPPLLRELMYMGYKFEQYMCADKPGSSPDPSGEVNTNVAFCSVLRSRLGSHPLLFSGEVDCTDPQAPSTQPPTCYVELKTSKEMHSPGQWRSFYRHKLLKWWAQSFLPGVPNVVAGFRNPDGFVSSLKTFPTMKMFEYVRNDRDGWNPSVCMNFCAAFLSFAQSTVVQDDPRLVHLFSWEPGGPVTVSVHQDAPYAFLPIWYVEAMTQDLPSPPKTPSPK
UniProt Q9BVJ7: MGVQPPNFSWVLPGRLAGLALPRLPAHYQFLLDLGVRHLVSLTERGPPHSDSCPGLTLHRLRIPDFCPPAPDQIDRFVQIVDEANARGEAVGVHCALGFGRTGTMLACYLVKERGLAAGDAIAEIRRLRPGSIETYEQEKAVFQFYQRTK
UniProt P24534: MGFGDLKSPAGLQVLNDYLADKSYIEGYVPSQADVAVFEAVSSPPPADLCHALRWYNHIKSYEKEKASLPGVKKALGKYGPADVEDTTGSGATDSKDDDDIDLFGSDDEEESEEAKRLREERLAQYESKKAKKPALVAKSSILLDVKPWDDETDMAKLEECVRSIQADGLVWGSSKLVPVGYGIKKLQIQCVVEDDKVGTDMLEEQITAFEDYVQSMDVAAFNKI

These targets were tested with C1=CC=C2C(=C1)C3=NNC4=CC=CC(=C43)C2=O (assay: log2 fold change, soluble protein after heating vs DMSO (PISA); higher = thermal stabilisation; K562 lysate, 10 uM; active = over 0.2 and 3.5 SD of the protein, either way, in both replicates (recomputed)).
How it was run: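 A 30 min treatment with 10 μM compound was applied to crude K562 extract at 1 mg/mL protein in PBS pH 7.4 with 1 mM MgCl2. Heating for 3 min spanned 48°C-58°C, after which aliquots were pooled, adjusted to 0.5% NP-40 at 4°C and spun at 21,000xg for 90 min. TMTpro 16plex LC-MS/MS of the supernatant, with channel sums equalised, gave values recorded as log-two fold change in thermal stability against solvent controls, from duplicates.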

log2 fold change, inactive:
DVL3 (UniProt Q92997) -0.155, EEF1AKNMT (UniProt Q8N6R0) -0.065, DUS4L (UniProt O95620) 0.062, DPH6 (UniProt Q7L8W6) -0.005, EFL1 (UniProt Q7Z2Z2) -0.059, EARS2 (UniProt Q5JPH6) -0.063, ECT2 (UniProt Q9H8V3) -0.09, DSG2 (UniProt Q14126) -0.019, DRAP1 isoform 2 (UniProt Q14919) -0.041, DYNC1LI1 (UniProt Q9Y6G9) -0.03, EHD2 (UniProt Q9NZN4) -0.071, E2F3 (UniProt O00716) 0.015, DR1 (UniProt Q01658) -0.002, DYNC1H1 (UniProt Q14204) -0.007, DUS3L (UniProt Q96G46) -0.013, DPH2 (UniProt Q9BQC3) 0.025, DYNC1LI2 (UniProt O43237) -0.03, EEA1 (UniProt Q15075) 0.01, DSCC1 (UniProt Q9BVC3) 0.02, ECI1 (UniProt P42126) 0.052, E2F4 (UniProt Q16254) -0.01, DYNLL1 (UniProt P63167) -0.031, DYNC1I2 isoform 2 (UniProt Q13409) 0.055, DPY19L4 (UniProt Q7Z388) 0.06, EFCAB14 (UniProt O75071) -0.022, DYRK1A (UniProt Q13627) 0.084, DPF2 (UniProt Q92785) -0.004, DSTN (UniProt P60981) 0.005, ECHS1 (UniProt P30084) 0.058, EFTUD2 (UniProt Q15029) 0.012, EDF1 (UniProt O60869) 0.021, DTYMK (UniProt P23919) 0.004, EEFSEC (UniProt P57772) -0.054, DSC2 (UniProt Q02487) 0.069, DXO (UniProt O77932) -0.038, DUSP23 (UniProt Q9BVJ7) -0.1, EGLN1 (UniProt Q9GZT9) -0.005, EEF1B2 (UniProt P24534) -0.016, EAPP (UniProt Q56P03) -0.094, EDEM3 (UniProt Q9BZQ6) 0.037
